No constants are given. Whether binding was seen depends on the method and setting. Binding seen in cells or lysates may run through a third protein. These calls come from enrichment with a bait or labelling near it, and not all partners need be listed.
What was measured:
[1] = target: T1, HCN1 (human (endogenous in induced neurons)) (UniProt O60741); experiment: affinity purification with mass spectrometry
T1 sequence: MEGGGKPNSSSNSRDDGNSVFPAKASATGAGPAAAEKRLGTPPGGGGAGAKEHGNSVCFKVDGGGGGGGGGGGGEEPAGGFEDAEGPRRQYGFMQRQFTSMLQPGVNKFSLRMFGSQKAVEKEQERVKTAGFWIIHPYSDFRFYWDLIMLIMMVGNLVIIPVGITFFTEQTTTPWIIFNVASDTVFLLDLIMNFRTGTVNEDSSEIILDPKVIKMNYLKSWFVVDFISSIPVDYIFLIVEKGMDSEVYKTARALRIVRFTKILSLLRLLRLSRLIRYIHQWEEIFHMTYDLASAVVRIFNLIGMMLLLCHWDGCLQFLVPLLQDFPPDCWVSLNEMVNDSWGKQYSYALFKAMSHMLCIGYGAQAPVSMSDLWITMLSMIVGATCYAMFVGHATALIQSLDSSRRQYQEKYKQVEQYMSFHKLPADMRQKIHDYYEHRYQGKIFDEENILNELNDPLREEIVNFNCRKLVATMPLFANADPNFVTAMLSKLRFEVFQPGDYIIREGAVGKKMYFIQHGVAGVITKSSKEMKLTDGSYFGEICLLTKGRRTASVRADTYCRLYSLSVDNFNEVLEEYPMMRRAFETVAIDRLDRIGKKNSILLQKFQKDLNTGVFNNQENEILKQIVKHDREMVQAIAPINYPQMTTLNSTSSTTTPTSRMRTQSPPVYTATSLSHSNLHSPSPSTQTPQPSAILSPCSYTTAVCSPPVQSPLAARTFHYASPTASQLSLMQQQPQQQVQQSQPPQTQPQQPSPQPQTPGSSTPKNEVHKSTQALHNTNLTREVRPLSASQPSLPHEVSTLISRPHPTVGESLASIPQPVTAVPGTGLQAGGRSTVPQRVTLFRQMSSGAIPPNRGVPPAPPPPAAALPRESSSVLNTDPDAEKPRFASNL

Chains of the proteins cited; added tags and fusions are not shown. Residues count along the entry.
UniProt Q13936: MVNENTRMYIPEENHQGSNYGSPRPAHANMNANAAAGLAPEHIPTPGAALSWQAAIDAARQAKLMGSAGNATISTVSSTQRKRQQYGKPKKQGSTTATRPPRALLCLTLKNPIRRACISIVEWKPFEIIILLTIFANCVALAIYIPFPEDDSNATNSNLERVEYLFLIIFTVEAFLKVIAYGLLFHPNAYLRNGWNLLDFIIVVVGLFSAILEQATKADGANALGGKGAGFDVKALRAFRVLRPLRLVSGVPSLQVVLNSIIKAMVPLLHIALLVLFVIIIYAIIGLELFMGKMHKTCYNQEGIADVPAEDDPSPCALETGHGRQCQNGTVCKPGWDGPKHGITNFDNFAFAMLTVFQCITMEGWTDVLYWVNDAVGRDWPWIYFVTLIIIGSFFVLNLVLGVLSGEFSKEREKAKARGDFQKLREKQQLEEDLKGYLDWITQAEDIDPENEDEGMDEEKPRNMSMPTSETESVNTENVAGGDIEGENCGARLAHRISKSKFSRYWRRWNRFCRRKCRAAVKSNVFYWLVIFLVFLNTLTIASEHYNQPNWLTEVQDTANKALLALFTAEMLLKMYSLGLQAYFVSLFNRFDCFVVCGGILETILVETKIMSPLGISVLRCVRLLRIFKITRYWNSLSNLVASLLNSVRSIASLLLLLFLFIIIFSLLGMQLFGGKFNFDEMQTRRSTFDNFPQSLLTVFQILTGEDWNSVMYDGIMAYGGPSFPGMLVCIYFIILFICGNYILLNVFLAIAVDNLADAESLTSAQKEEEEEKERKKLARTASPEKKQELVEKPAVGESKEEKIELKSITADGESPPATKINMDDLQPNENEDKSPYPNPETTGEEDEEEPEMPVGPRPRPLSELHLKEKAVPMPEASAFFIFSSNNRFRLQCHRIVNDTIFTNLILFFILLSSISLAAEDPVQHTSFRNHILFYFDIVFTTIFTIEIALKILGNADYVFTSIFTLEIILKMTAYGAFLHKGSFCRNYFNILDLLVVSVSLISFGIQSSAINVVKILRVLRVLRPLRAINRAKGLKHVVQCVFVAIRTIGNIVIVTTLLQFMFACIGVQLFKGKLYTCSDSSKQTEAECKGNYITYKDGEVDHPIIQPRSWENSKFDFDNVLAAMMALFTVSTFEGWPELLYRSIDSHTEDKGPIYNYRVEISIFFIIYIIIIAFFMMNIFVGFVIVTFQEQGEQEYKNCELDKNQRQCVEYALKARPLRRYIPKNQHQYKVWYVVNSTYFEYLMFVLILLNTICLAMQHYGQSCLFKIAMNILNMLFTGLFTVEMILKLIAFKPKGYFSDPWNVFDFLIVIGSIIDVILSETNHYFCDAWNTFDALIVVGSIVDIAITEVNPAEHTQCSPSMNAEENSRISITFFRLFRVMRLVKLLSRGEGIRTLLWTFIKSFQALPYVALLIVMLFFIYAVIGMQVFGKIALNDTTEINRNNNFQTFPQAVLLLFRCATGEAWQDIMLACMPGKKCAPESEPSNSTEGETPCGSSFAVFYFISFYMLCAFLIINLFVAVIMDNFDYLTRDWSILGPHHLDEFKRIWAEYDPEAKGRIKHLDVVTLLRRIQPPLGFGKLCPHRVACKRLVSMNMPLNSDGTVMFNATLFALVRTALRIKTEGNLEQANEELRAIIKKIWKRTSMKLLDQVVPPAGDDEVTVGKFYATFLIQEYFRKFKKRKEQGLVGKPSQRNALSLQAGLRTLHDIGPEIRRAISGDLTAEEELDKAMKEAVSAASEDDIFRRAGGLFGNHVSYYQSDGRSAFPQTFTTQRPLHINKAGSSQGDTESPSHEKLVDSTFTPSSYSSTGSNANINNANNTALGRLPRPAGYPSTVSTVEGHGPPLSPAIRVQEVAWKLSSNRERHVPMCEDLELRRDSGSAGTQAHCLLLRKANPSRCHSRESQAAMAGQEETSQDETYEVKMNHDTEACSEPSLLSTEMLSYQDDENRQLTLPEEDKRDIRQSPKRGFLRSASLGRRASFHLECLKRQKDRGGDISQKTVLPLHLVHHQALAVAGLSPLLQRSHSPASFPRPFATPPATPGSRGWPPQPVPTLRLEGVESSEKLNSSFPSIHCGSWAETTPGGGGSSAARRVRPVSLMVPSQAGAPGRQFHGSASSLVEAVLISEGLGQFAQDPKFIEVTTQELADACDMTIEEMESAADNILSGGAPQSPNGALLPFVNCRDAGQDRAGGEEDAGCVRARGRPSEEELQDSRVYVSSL
UniProt Q9UKA4: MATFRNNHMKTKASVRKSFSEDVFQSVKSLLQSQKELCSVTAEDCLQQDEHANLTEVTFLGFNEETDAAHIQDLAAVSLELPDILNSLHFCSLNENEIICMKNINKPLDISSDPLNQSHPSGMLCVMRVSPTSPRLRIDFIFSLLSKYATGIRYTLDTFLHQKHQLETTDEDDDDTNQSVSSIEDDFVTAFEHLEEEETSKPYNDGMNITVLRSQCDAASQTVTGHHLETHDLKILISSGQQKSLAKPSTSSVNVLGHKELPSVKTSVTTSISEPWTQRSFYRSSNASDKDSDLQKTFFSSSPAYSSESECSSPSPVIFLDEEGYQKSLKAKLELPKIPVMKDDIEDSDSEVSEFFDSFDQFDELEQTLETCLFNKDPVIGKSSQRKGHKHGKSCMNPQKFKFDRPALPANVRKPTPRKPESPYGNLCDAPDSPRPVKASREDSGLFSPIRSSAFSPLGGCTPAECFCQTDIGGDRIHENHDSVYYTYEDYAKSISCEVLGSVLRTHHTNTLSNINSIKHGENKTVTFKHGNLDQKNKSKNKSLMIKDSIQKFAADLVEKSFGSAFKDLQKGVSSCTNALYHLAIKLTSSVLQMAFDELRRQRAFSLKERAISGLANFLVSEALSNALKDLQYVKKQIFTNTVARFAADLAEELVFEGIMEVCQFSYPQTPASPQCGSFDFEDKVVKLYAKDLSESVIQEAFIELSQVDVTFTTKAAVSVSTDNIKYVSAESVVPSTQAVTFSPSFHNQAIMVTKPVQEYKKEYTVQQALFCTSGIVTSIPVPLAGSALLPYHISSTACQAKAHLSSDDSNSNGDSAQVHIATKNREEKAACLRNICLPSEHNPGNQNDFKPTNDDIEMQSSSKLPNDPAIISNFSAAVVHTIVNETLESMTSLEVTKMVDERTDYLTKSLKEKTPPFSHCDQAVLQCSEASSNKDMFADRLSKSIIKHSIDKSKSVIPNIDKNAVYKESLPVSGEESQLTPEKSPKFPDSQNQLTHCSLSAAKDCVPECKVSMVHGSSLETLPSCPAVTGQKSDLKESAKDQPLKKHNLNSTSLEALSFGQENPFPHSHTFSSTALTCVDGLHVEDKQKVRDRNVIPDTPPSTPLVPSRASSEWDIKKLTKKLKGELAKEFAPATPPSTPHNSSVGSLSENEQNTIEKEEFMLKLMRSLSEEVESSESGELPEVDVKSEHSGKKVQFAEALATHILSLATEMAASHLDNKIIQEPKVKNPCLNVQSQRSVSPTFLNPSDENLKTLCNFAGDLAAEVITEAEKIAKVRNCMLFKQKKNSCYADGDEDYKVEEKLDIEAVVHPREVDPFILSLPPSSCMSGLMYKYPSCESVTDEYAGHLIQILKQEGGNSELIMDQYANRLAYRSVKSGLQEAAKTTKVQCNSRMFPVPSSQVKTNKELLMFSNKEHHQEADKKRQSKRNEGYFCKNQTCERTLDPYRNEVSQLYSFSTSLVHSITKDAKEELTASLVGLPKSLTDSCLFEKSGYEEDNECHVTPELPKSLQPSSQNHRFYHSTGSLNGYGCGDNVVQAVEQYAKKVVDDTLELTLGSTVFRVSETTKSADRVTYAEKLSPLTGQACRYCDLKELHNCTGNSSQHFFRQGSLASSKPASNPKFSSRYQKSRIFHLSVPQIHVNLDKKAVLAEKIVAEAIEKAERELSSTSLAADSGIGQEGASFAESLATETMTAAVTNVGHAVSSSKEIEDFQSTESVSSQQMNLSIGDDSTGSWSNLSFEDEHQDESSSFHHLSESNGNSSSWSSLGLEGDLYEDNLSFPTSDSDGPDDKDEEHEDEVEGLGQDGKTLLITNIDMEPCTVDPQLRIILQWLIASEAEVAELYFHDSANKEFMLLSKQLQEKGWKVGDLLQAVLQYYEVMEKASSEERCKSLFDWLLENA
UniProt P01024, residues 23-1663: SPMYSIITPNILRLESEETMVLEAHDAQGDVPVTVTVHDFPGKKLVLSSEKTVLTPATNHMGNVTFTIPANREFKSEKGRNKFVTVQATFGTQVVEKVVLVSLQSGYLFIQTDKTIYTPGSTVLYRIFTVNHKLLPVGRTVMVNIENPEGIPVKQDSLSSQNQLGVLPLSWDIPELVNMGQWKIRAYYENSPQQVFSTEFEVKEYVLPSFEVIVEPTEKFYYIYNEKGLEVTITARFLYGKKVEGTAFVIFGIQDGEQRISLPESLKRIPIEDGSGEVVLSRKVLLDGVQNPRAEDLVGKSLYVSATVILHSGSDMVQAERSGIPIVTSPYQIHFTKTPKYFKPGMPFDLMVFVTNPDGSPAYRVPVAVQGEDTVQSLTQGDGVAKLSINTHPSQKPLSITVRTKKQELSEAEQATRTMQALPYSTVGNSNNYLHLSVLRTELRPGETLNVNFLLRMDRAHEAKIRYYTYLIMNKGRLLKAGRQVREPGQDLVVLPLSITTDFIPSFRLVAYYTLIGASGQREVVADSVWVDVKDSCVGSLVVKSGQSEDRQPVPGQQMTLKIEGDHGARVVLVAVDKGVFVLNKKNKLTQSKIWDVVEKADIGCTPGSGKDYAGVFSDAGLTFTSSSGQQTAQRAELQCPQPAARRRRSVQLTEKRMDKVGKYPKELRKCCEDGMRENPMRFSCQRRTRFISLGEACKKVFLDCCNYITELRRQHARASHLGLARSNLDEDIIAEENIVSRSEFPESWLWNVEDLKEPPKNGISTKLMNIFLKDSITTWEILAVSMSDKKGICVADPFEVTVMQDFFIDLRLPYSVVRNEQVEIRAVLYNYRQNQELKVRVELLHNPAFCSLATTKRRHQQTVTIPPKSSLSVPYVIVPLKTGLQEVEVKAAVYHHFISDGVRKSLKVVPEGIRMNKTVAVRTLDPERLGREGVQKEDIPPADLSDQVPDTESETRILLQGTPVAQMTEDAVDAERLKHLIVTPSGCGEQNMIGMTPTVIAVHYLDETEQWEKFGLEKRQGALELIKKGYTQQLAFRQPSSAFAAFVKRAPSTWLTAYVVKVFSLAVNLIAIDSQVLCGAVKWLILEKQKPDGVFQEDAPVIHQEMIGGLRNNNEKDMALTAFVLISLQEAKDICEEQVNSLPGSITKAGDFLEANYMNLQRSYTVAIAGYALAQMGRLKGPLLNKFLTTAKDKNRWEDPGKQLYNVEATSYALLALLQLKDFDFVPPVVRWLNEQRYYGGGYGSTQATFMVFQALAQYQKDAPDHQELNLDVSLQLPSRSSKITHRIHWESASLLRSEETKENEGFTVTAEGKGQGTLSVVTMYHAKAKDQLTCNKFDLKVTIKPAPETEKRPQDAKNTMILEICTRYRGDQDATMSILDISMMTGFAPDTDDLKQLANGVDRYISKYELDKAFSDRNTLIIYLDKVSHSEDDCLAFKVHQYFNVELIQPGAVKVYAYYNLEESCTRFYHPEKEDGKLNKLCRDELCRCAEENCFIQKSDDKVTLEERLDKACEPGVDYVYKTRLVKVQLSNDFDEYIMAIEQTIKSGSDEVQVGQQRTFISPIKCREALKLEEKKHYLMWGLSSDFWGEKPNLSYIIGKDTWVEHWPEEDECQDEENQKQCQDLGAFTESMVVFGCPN

[2] = target: CACNA1C (human (endogenous in induced neurons)) (UniProt Q13936); experiment: affinity purification with mass spectrometry

| binding [1] | binding [2] | Substance |
| --- | --- | --- |
| binds | – | AKAP11 (from UniProt Q9UKA4 1-1901) |
| – | binds | C3 (from UniProt P01024 23-1663) |

Reference: paper doi:10.1101/2021.10.07.21264568
